Measured values published in patent US20060252697A1 (ANTYRA, published 2006).
Results are given in words; binding and its absence hold for the method and conditions named. Some binding calls cover weakened binding; strength is not graded here.

T1: rat growth hormone binding protein (rGHBP) (rat) (UniProt P16310)
T1 sequence (looked up): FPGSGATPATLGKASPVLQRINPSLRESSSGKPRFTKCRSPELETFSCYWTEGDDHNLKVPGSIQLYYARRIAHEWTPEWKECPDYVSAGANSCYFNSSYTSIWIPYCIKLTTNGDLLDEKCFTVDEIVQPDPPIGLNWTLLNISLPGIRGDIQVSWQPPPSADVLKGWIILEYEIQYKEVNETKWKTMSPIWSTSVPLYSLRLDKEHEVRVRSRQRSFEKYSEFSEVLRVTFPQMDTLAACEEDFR


Target: T1, rat growth hormone binding protein (rGHBP) (rat)
Test: BIAcore appKD

binding, binds:
DYKDLCQRLGVTWPGWLAGWCA (biotinylated in Table I (position not given)) [peptide #443]
DYKDLCQRLEATWPGWLVGWCA [peptide #417]

Target: T1, rat growth hormone binding protein (rGHBP) (rat)
Test: phage ELISA competition on rGHBP (100 ng/well); synthetic peptide (with KK at the C-terminus) against H5 phage, 10^10/well

binding, binds:
DYKDLCQRLGVTWPGWLAGWCA (biotinylated in Table I (position not given)) [peptide #443]

Target: T1, rat growth hormone binding protein (rGHBP) (rat)
Test: phage ELISA on rGHBP-coated wells (100 ng/well); clones from panning of the secondary H5 library

binding, binds:
LCQSLGITYPGWLAGWCA
LCQTLGVTYPGWLAGWCA
LCQSLGVKYPGWLAGWCA
LCQSLGVKYPGWLTGWCA
LCQSLGVTYPGWLSGWCA
LCQSLGVAYPGWLAGWCA
LCQSLGVTFPGWLSGWCA
LCQALGVTYPGWLAGWCA
LCQSLGVSYPGWLAGWCA
LCQSLGVTYPGWLAAWCR
LCQSLGVTYPGWLDGWCA
LCQSLGVSYPGWLVGWCA
LCQTLGVKYPGWLAGWCA
LCQSLGLTYPGWLAGWCG
LCQSLGEAYPGWLAGWCA
LCQRLGLTWPGWLAGWCA
LCQSLGVWWPGWLAGWCA
LCQSLGFTYPGWLAGWCA
LCQSLGVTYPGWLAGWCS
LCQSLGVTYPGWLVGWCA
LCQSLAVTYPGWLAGWCA
LCQSLGVRYPGWLAGWCA
LCQSLGVLYPGWLAGWCA
LCQSLGPTYPGWLAGWCA
MCQSLGVTYPGWLAGWCA
LCQSLGLRYPGWLAGWCA
LCQSLGVTYPGWLAGWCG
LCQRLGVTWPGWLAGWCA
LCQSLGATWPGWLAGWCA
LCQRLGVSWPGWLAGWCA
LCQSLPVRYPGWLSGWCS
LCQRLGVGWPGWLAGWCA
LCQNLGITWPGWLAGWCA
LCQSLGVTFPGWLAGWCA
LCQSLGDKYPGWLAGWCA
LCQSLGVGWPGWLAGWCA
LCQRLGVTWPGWLTGWCA
LCQSLGVTYPGWLTGWCA
LCQSLGATYPGWLWGWCA
LCQSLGDTYPGWLAGWCA
LCQSLGVGYPGWLAGWCA
LCQSLGVTWPGWLAGWCA
LCQRLGVTYPGWLAGWCA
LCQRLGATWPGWLAGWCA
LCQSLGVNWPGWLAGWCA
LCQSLGVSWPGWLTGWCA
LCQRLGIGWPGWLAGWCA
LCQRLGVGWPGWVAGWCA
LCQSLGVSYPGWLTGWCA
LCQHLGVTWPGWLAGWCA
LCQSLGIGYPGWLTGWCA
LCQRLVVGWPGWLAGWCA
LCQRLGVTWPGWIAGWCA
LCQSWQVTWPGWLAGWCA
LCQRLEATWPGWLVGWCA
LCQSLGVGWPGWLTGWCA
LCQSLGVNYPGWLAGWCA
LCQRFGVGFPGWLAGWCA
LCQNLGVTWPGWLAGWCA
LCQRLGVGWPGWLSGWCA
LCQRLGVTWPGWLWGWCA
LCQSLRVRQPGWLSGWCA
